Percent effect of library compounds

Amino acid sequences for entries named in this document (tags omitted). Residues count along the entry.
UniProt Q4DA54, 1-478: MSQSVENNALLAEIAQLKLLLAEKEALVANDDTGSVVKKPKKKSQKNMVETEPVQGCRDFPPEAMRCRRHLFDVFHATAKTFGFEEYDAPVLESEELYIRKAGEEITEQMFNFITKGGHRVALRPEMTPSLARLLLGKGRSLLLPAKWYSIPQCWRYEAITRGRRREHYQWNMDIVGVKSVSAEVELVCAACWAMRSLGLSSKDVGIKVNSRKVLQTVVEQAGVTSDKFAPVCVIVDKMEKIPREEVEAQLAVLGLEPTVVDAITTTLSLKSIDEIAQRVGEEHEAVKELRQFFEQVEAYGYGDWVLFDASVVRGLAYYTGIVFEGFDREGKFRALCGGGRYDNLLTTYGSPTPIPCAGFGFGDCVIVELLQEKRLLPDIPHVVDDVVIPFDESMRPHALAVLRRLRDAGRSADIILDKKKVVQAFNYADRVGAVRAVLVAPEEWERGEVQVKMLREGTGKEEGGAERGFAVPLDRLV
UniProt P9WNZ1, whole entry: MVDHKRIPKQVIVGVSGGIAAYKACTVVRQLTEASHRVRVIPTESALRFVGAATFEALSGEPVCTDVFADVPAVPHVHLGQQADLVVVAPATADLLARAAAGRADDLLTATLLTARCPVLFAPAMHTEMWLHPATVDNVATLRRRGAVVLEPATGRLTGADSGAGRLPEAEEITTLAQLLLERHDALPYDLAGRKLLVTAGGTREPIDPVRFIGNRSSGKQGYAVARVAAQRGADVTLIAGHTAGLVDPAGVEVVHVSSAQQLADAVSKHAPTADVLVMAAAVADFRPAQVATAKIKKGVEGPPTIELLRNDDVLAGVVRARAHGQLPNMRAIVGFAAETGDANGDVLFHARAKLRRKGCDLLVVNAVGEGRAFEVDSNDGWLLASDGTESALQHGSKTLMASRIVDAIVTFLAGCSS
UniProt P9WPC5, whole entry: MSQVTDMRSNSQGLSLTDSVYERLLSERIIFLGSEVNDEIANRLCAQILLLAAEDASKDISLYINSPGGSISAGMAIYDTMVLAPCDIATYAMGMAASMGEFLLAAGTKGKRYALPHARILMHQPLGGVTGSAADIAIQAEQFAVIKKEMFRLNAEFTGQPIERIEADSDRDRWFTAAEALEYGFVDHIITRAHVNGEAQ
UniProt P9WPC3, whole entry partner: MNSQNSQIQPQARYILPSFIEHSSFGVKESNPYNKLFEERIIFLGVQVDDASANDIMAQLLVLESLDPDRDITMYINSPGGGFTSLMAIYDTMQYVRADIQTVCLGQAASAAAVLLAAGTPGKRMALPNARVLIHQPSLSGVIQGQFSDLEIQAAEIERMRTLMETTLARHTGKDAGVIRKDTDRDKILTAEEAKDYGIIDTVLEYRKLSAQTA
UniProt Q8IDJ8, 1-583: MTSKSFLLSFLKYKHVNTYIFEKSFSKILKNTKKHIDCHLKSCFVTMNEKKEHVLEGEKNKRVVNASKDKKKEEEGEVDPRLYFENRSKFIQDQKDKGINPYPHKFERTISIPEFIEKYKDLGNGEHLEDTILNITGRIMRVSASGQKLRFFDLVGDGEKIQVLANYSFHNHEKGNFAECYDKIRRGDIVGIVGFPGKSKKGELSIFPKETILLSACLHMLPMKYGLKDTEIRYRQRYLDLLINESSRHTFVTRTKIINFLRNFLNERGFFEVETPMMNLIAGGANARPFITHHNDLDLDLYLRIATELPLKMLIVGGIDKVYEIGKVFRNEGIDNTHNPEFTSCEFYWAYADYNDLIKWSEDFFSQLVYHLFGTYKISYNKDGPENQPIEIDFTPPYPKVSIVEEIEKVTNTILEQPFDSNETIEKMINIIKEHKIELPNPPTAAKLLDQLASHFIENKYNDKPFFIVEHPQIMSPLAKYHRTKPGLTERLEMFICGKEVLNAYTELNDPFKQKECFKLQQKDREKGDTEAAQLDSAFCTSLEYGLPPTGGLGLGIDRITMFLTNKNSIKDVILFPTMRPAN

Leishmania in macrophages: 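Cell assay of Leishmania donovani living inside macrophages; the read-out is not stated. Concentration: 30 µM. Direction is inferred from retests: higher values go with stronger inhibition. Of about 69,000 compounds tested this way, about 1,000 (1.5%) reached 50% or more in at least one test.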
TcHisRS: 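Histidine-tRNA ligase, Trypanosoma cruzi CL Brener (UniProt Q4DA54). Enzyme assay of histidyl-tRNA synthetase; the read-out is not stated. Compounds at 30 µM. Higher reads as stronger inhibition (inferred: compounds with an IC50 in retests scored well above the rest). Of about 69,000 compounds tested this way, about 31 (0.045%) reached 50% or more in at least one test.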
CoaBC: 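Coenzyme A biosynthesis protein CoaBC, Mycobacterium tuberculosis (UniProt P9WNZ1). Enzyme assay of CoaBC with a phosphate dye (Biomol Green) read at 650 nm. Concentration: 30 µM. Direction is inferred from only a few compounds that gave an IC50; most scored high, so higher reads as stronger inhibition. Most strong results did not repeat in a second test. Of about 67,000 compounds tested this way, about 40 (0.06%) reached 50% or more in at least one test.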
ClpP1P2: 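Protease assay of ClpP1P2, read by the AMC dye that it sets free. Target: ClpP1P2, Mycobacterium tuberculosis (UniProt P9WPC5 and UniProt P9WPC3). Tested at 50 µM. Direction is inferred from only a few compounds that gave an IC50; most scored high, so higher reads as stronger inhibition. Most other retested compounds had strongly negative values. About 69,000 compounds were tested under these conditions; 0.015% (about 10) showed 50% or more at least once.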
PfKRS1: 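Enzyme assay of the cytosolic lysyl-tRNA synthetase in 384-well plates, read by luminescence. Target: Lysine-tRNA ligase, Plasmodium falciparum 3D7 (UniProt Q8IDJ8). Tested at 30 µM. Direction is inferred from only a few compounds that gave an IC50; most scored high, so higher reads as stronger inhibition. About 69,000 compounds were tested under these conditions; 0.071% (about 49) showed 50% or more at least once.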

Each number is a percent effect as filed.
The record does not define 0% and 100%; most values in the screen are far below 50% and negative numbers occur (in some assays of this library far below -100).
Compounds were drawn at random from those tested, without regard to their results.
Two or more numbers in one place are separate tests of the same structure; such repeats can differ widely.

With CCc1nccn1C1CCCN(C(=O)CCCc2ccccn2)C1 (stereo not shown) the screen gave Leishmania in macrophages: 13.85%; TcHisRS: 7.692%; CoaBC: -7.775%; ClpP1P2: -12.96%; PfKRS1: -0.3216%.
With COCCN1CCC2(CC1)CN(C(=O)Cc1cccnc1)CCO2.O=C(O)C(F)(F)F.O=C(O)C(F)(F)F the screen gave Leishmania in macrophages: 12.43%.
With Cc1cnn(C2CCCN(C(=O)CCCOc3ccccc3F)C2)c1 (stereo not shown) the screen gave Leishmania in macrophages: 37.83%; TcHisRS: 5.983%; CoaBC: -8.579%; ClpP1P2: -7.384%; PfKRS1: 0.6967%.
With COCCn1c2c(ccc1=O)CCN(Cc1ccoc1)CC2 the screen gave Leishmania in macrophages: -4.449%; TcHisRS: 6.03%; CoaBC: -4.362%; ClpP1P2: -0.8466%; PfKRS1: 3.132%.
With Nc1nccc(C2CN(Cc3ccc(-c4ccccc4C(=O)O)o3)C2)n1 the screen gave Leishmania in macrophages: 23.69%; TcHisRS: 36.36%; CoaBC: -0.4932%; ClpP1P2: -9.52%; PfKRS1: 0.3538%.
With Cc1ccc(N2C[C@@H]3CN(Cc4csc(C)n4)CCO[C@@H]3C2)nn1 the screen gave TcHisRS: 6.897%; CoaBC: 2.254%; ClpP1P2: -9.367%; PfKRS1: 1.589%.
With CN(C)C(CNCc1nc(-c2ccsc2)no1)c1cccc(F)c1 (stereo not shown) the screen gave Leishmania in macrophages: -65.67%; TcHisRS: 6.349%; CoaBC: 0.6198%; ClpP1P2: -3.952%; PfKRS1: 5.08%.
With Cc1cc(C(=O)N2CCN(S(C)(=O)=O)[C@@H](C)C2)c(F)cc1F the screen gave Leishmania in macrophages: 32.11%; TcHisRS: 6.748%; CoaBC: -0.3841%; ClpP1P2: -7.909%; PfKRS1: 3.778%.
With O=C(c1ncoc1C1CCCO1)N1CCCC2(CCCCC2)C1 (stereo not shown) the screen gave Leishmania in macrophages: -3.774%; TcHisRS: 11.69%; ClpP1P2: 8.607%; PfKRS1: 2.109%.
With O=C(O)C(F)(F)F.O=C(O)C(F)(F)F.O=C(O)C(F)(F)F.[H][C@@]12OCCN(Cc3cccc(C)n3)[C@@]1([H])CC[C@H]2Oc1ccccn1 the screen gave Leishmania in macrophages: 10.99%.
With CCCC(=O)N1CCC(C(=O)NCCN2CCC(C)CC2)CC1 the screen gave Leishmania in macrophages: 16.41%; TcHisRS: 7.882%; CoaBC: -3.205%; ClpP1P2: -2.612%; PfKRS1: 7.166%.
With Cc1cnn(C2CCCN(C(=O)CCCn3ccnc3C)C2)c1 (stereo not shown) the screen gave Leishmania in macrophages: 4.874%; TcHisRS: 1.744%; CoaBC: 5.482%; ClpP1P2: 8.923%; PfKRS1: -1.573%.
With Cc1ccoc1-c1nnc(CNCCn2cccn2)o1 the screen gave Leishmania in macrophages: 26.68%; TcHisRS: 1.504%; CoaBC: -5.398%; ClpP1P2: 18.33%; PfKRS1: 1.979%.
With Cc1nc(O)cc([C@@H]2CN(C(=O)C3CC3)C[C@H]2c2ccccc2F)n1 the screen gave Leishmania in macrophages: 12.25%; TcHisRS: 3.03%; CoaBC: 1.233%; ClpP1P2: -15.34%; PfKRS1: 0.1132%.
With CC(CNC(=O)N1CCNC(=O)CC1)Cc1cccs1 (stereo not shown) the screen gave Leishmania in macrophages: -20.46%; TcHisRS: 3.261%; CoaBC: -4.637%; ClpP1P2: 0.1161%; PfKRS1: 0.02291%.
With CN(C)Cc1n[nH]c2c1CCN(Cc1cccs1)C2 the screen gave TcHisRS: 5.747%; CoaBC: -8.35%; ClpP1P2: -1.277%; PfKRS1: 3.057%.
With CC(C)OC[C@H]1CCC[C@]12CN(S(=O)(=O)C1CC1)CCO2 the screen gave Leishmania in macrophages: 29.19%; TcHisRS: 8.589%; ClpP1P2: -4.701%; PfKRS1: -0.2922%.
With [H][C@@]12CN(CC3CC3)C[C@]1([H])[C@H](OC)CCN2c1ncc(F)cn1 the screen gave Leishmania in macrophages: 3.103% and 12.22%.
With CCc1nc(CN2CCCN(C(=O)C3CCC3)CC2)cs1 the screen gave Leishmania in macrophages: -66.47%; TcHisRS: -0.8333%; CoaBC: 0.6316%; ClpP1P2: 1.197%; PfKRS1: -6.861%.
With OC(COCc1cccs1)CN1CCC(c2ccn[nH]2)CC1 (stereo not shown) the screen gave Leishmania in macrophages: 16.05%; TcHisRS: 5.263%; CoaBC: 4.884%; ClpP1P2: -6.068%; PfKRS1: 9.659%.
With NC(=O)CN1CCC(Nc2ccnc3ccc(Cl)cc23)CC1 the screen gave Leishmania in macrophages: -39.7%; TcHisRS: 1.587%; CoaBC: -4.752%; ClpP1P2: -2.486%; PfKRS1: 1.823%.
With O=C(O)C1(n2ccc(-c3ccco3)n2)CCN(Cc2cccs2)CC1 the screen gave Leishmania in macrophages: 26.34%; TcHisRS: 4.02%; CoaBC: 10.18%; ClpP1P2: -10.03%; PfKRS1: 1.687%.
With O=S1(=O)NC(C2CCCN(S(=O)(=O)N3CCCC3)C2)=Nc2ccccc21 (stereo not shown) the screen gave Leishmania in macrophages: 13.14%; TcHisRS: 2.825%; CoaBC: -0.2421%; ClpP1P2: -8.436%; PfKRS1: 1.893%.
With FC(F)(F)c1ccnc(N2CCCCCC2)c1 the screen gave Leishmania in macrophages: 26.09%; TcHisRS: -2.941%; CoaBC: 5.104%; ClpP1P2: -8.919%; PfKRS1: 3.399%.
With NCC1Cc2cc(-c3cncc(C(=O)N4CCCCC4)n3)cc(F)c2O1 (stereo not shown) the screen gave Leishmania in macrophages: -28.1%; TcHisRS: 3.933%; CoaBC: 5.835%; ClpP1P2: -14.1%; PfKRS1: 6.719%.
With O=C(c1cccc(-n2cccn2)c1)N1CCCOC(CN2CCCC2)C1 (stereo not shown) the screen gave Leishmania in macrophages: 9.419%; TcHisRS: 24.16%; CoaBC: 3.823%; ClpP1P2: -2.62%; PfKRS1: 3.196%.

Once more, the final 3:

| compound | Leishmania in macrophages | TcHisRS | CoaBC | ClpP1P2 | PfKRS1 |
|---|---|---|---|---|---|
| `FC(F)(F)c1ccnc(N2CCCCCC2)c1` | 26.09% | -2.941% | 5.104% | -8.919% | 3.399% |
| `NCC1Cc2cc(-c3cncc(C(=O)N4CCCCC4)n3)cc(F)c2O1` (stereo not shown) | -28.1% | 3.933% | 5.835% | -14.1% | 6.719% |
| `O=C(c1cccc(-n2cccn2)c1)N1CCCOC(CN2CCCC2)C1` (stereo not shown) | 9.419% | 24.16% | 3.823% | -2.62% | 3.196% |

The values are deposited in ChEMBL (CHEMBL3988442, “University of Dundee, Small-Polar-MMV Screening Library” (2021)).